Laboratory results reported in PubChem BioAssay AID720507 (National Center for Advancing Translational Sciences (NCATS), 2013).
Screen size: about 2,300 compounds; about 140 (6.1%) were called active. Not shown: some 18% with an inconclusive outcome. Calls follow the shape of the dose curve; as a rule, active = well fitted activation curve with a large enough effect; inconclusive = small, poorly fitted or top-dose-only effect; inactive = flat fitted curve, though single readings scatter. The list shows a part of the results, in another mix than the full data.

Sequences of proteins named here, by UniProt entry; tags and fusion partners are left off.
UniProt P14416, whole entry, looked up: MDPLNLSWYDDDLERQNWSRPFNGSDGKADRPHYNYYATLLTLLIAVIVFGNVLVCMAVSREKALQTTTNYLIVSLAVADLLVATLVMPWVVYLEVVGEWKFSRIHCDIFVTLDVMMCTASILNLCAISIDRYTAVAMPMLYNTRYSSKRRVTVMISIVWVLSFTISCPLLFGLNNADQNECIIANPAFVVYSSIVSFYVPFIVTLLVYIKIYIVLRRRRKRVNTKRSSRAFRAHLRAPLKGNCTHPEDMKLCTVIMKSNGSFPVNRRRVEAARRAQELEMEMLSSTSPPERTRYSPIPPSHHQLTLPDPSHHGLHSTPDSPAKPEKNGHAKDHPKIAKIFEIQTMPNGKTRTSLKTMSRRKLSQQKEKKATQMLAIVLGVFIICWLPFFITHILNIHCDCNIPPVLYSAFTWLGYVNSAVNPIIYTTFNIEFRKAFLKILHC

Molecular target: D(2) dopamine receptor (Homo sapiens) (UniProt P14416)
Assay: qHTS of D3 Dopamine Receptor Agonist: D2 Dopamine Receptor B-arrestin Agonist Counterscreen; also: nearly all actives have a fitted effect of over 70% in size; as to activation: % of control where 0% means no effect
Details: DiscoveRx PathHunter D2 beta-arrestin, luminescence, 90 min; series mostly up to 76.9 µM; activation: at the top concentration
From the text: D3 DARs represent a very important target for the treatment of several neuropsychiatric disorders. Indeed, one of the most promising therapeutic applications for the D3 DAR is in the area of addiction and related disorders. […] These findings have been observed with a number of addictive substances including cocaine, amphetamine, nicotine, and alcohol. […] Increased D3 DAR activity can thus lead to neuroprotective and neurorestorative actions in the CNS. […] This assay is used to profile the activity of the identified D3 dopamine receptor agonist against the D2 dopamine receptor. Greater than 10% of the maximum dopamine agonist response is desired for this assay. NIH Molecular Libraries Probe Production Centers Network [MLPCN] NIH Chemical Genomics Center [NCGC] MLPCN Grant: NS064831 Assay Submitter (PI): David Sibley
DiscoveRx D2 cells were thawed from frozen stock and seeded at 2,100 cells/ 3 uL/well media (DiscoveRx Plating Reagent 2) with MultiDrop Combi dispenser (Thermo Scientific, Logan, UT) onto white tissue culture treated 1536-well Aurora plates (Brooks Automation, Chelmsford, MA) and allowed to attach overnight at 37 deg C, 5% CO2. Next, 23 nL/well of compound solutions in DMSO were added with a pintool transfer (Kalypsis, San Diego, CA). […] The rest of the plate was dispensed with buffer only, 1 uL/well as well. The cells were stimulated by compounds or dopamine control for 90 minutes at 37 deg C, 5% CO2, after which 1.5 ul/well of DiscoveRx detection reagent was added with BioRAPTR FRD dispenser. The detection reagent was prepared by mixing of Galacton Star Substrate, Emerald II solution and PathHunter buffer (supplied by the assay kit) together at 1:5:19 proportion accordingly just prior to dispensing. The plates were incubated at ambient temperature for 1 hour and then the luminescent signal was read on ViewLux plate reader (PerkinElmer, Waltham, MA).
Potency is read from the fitted curve at half-maximal effect.

SMILES | activation | Potency
N#C/C(N)=C(/N)C#N | inactive: -5.21% | 
NCC(O)c1cc(O)c(O)cc1F (stereo not drawn) |  | active: 12.6 µM
COC(=O)C1=C(c2ccc(-c3ccccc3)c(F)c2)C[C@@H]2CC[C@H]1N2C(=O)NCc1ccc(F)cc1 | inactive: 1.89% | 
